# Measured values taken from US8546524B2 (The United States of America, as represented by the …, priority 2006, dated 2013).
# Experiment: general procedure: Fmoc solid-phase peptide synthesis; Rink-amide resin; HBTU/HOBt
# Conditions: whole synthesis, Zorbax 300SB-C3 column, 0-100% 25 min gradient of 0.5% acetic acid in water and 0.5% acetic acid in acetonitrile
row,Substance,final purity (method not given) [%]
1,PalTYAWHTSFKAL,98
2,AcKFSTHWAYTLK(ε-Pal)All-D,98
3,PalLTYAWHTSFKALGTTYQPLSGKTSYK(ε-Pal),95
4,PalRGVMTLFSIKSNHPGLLSEKAASKINETMLR,95
5,AcTYAWHTSFKA,99
6,AcYAWHTSFKALGTTYQPLSGKTSYK-[…] ε-Pal,95
7,GTTYQPLSGKTSYK-[…] ε-Pal,98
8,AcAKFSTHWAYTLK(ε-Pal)-All-D,97
9,PalLTYAWHTSFKALGTTYQPLSG,96
10,PalLTYAWHTSFKALGTTYQPLSGKYSY,95
11,PaILTYAWHTSFKA,98
12,PalLTYAWHTSFK,97
13,PalRGVMTLFSIKSNH,97
14,AcLTYAWHTSFKAL,100
15,PalRGVMTLFSIKSNHPGLLSEKA,96
16,PalLTYAWHTSFKAL,96

row,Substance,final purity (method not given) [%]
1,PalLTYAWHTSFKAL (All-D),96
2,AcLTYAWHTSFKAL (All-D),98
3,LFSIKSNHPGLLSEKAASKINETMLRK-[…] ε-Pal,95
4,WFVVLTYAWHTSFKAL,96
5,Ac-LTYAWHTSFKAL-Penetratin,95
6,LLSEKAASKINETMLRK-[…] ε-Pal,96
7,AcLAKFSTHWAYTLK(ε-Pal)-All-D,97
8,SEKAASKINETMLRK-[…] ε-Pal,97
9,PalLTYAWHTSFKALGTTYQPLSGKTSY,95
10,VWFVVLTYAWHTSFKAL,96
11,PalRGVMTLFSIKSNHPGLLS,96
12,PalLTYAWHTSFKALGTTYQP,96
13,AcLTYAWHTSFKALGTTYQPLSGKTSYK-ε-Pal,95
14,PalLFSIKSNHPGLLSEKAASKINETMLR,95
15,RGVMTLFSIKSNHPGLLSEKAASKINETMLRK-ε […]Pal,95

# Plain letter strings leave the end groups untold.
